The chains behind the UniProt entries cited, without tags or fusion partners.
UniProt Q0JBA9, entry or part of it: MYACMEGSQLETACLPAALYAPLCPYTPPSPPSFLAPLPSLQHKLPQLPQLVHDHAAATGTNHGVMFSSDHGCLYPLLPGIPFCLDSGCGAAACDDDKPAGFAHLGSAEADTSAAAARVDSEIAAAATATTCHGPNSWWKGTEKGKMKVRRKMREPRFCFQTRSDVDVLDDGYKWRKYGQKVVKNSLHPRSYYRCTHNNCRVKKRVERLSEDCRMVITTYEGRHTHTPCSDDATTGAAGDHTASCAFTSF

The list shows a part of the results.
What follows are sequences tested against OsWRKY34 (Oryza sativa, UniProt Q0JBA9 1-250) (assay: protein-binding microarray (RPBM); PBS, 2% BSA, 51.3 ng/ul salmon testes DNA, 50 uM zinc acetate, 200 nM TF, 25 C, 1 h; high values mean tight binding). Settings: protein: recombinant; tags: N-terminal polyhistidine and DsRed monomer fusion (pET32a); label: CyDye5-dUTP incorporated in the synthesized complementary strand; 3' TTTTT single-stranded linker to array surface; dsDNA, one strand shown.
How it was run: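 Binding signal is defined as the fluorescence intensity of each feature in arbitrary units, read on an Axon 4000B scanner. Transcription factors with N-terminal polyhistidine and DsRed fusions came from E. coli BL21-CodonPlus and were purified on Ni–NTA. They were incubated at 200 nM for 1 h at 25 °C on a custom Agilent array that had been made double-stranded with Cy5-dUTP, with 50 µM zinc acetate present, and the array was washed.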
In the case of “CCCAGTCAAGCCACCGTAATTCCACACAGTCTCCATGCCTCGGAGTCACCTAGTGCAG”, the binding signal is reported as 8680 fluorescence intensity (a.u.).
With “ATAAGACGGATGGTTAAACGTTGGTCCAAAAGTCAACGGTCGGAGTCACCTAGTGCAG” the binding signal was 13200 fluorescence intensity (a.u.).
“GAAGCAAAGGAAGGGAGGGGAGATTGGGTTTGGGTGGTGTCGGAGTCACCTAGTGCAG” was tested, and the binding signal was 9190 fluorescence intensity (a.u.).
With “ACTCCTTTTTTGGCTGCCCATCCACAGTCGCCACCAGAAACGGAGTCACCTAGTGCAG” the binding signal was 8210 fluorescence intensity (a.u.).
In the case of “TATTCATTGGCATAGTTGTGATGCTTTGTTCTTGTTCTTGCGGAGTCACCTAGTGCAG”, the binding signal is reported as 8440 fluorescence intensity (a.u.).
In the case of “TCTCTATGCCGCACCGTGCATCCATGCCTGGTTTTCTTTGCGGAGTCACCTAGTGCAG”, the binding signal is reported as 8040 fluorescence intensity (a.u.).
In the case of “CCCTTGACATAATCCCGAGCGATTTTATTCTATATGGCATCGGAGTCACCTAGTGCAG”, the binding signal is reported as 8820 fluorescence intensity (a.u.).
In the case of “GGAATATATCCTGTTTTTTTTTCATCATTCTCTTTCTTTCCGGAGTCACCTAGTGCAG”, the binding signal is reported as 15300 fluorescence intensity (a.u.).
“GCCTTCTCCATCTCTCTGCTTCTTTTGTTTGTTTTTCTTTCGGAGTCACCTAGTGCAG” was tested, and the binding signal was 13000 fluorescence intensity (a.u.).
In the case of “TTCCTTTTGGCCACTCTTTGATTTCTTTTTTCAATTCTATCGGAGTCACCTAGTGCAG”, the binding signal is reported as 11500 fluorescence intensity (a.u.).
In the case of “TCGCTCGCTTTCTGTCCCTGCGATCTGTCGCCGCCGTCGTCGGAGTCACCTAGTGCAG”, the binding signal is reported as 10000 fluorescence intensity (a.u.).
With “AGGCCCATCGTACTACTTTCCTTCCTGCTATACTCGCGCACGGAGTCACCTAGTGCAG” the binding signal was 13400 fluorescence intensity (a.u.).
“GAGCAAAAGGAGAGAGAGAGAGAGTCTTTTCAATTTTCTTCGGAGTCACCTAGTGCAG” was tested, and the binding signal was 8270 fluorescence intensity (a.u.).
In the case of “GGTGTGGGAGGAAGAACGGGACGGGGTGGCGTCACCATCGCGGAGTCACCTAGTGCAG”, the binding signal is reported as 8250 fluorescence intensity (a.u.).
For “TCACTCCCCACTACTTTCCCGCTCTCCTCGTATAAAACCTCGGAGTCACCTAGTGCAG”, the binding signal was 8280 fluorescence intensity (a.u.).
“CTCCATCGCTTCGCTCTTCGCCGGATCTAGCACCGACGGTCGGAGTCACCTAGTGCAG” was tested, and the binding signal was 9000 fluorescence intensity (a.u.).
In the case of “TAATCTAGAGTGAGTTTGTACTAATTGGTTGGGTGGTTTTCGGAGTCACCTAGTGCAG”, the binding signal is reported as 8860 fluorescence intensity (a.u.).
With “CCTCCTCAACGCCGCCACCTCATCCGTCCATACAGCGCCGCGGAGTCACCTAGTGCAG” the binding signal was 12100 fluorescence intensity (a.u.).
In the case of “ATTCTTCTTTCCTTTTGTCTGGAATGCTGATTCCTGAATCCGGAGTCACCTAGTGCAG”, the binding signal is reported as 9150 fluorescence intensity (a.u.).
With “TAATGTTTATTAGGAGTTGTTCATTTTTCGTGCTATATTACGGAGTCACCTAGTGCAG” the binding signal was 8570 fluorescence intensity (a.u.).
“GCTTCTTCCTCCGCCACCTCTCTGGTCTTTCCGCGTGTCGCGGAGTCACCTAGTGCAG” was tested, and the binding signal was 10400 fluorescence intensity (a.u.).
For “TTAGTGATTTCTTGTCTCCTGATCATCTGTAGTCTGTAGACGGAGTCACCTAGTGCAG”, the binding signal was 8160 fluorescence intensity (a.u.).
In the case of “GGTTTATAAATACCGATGGCCACCTCGTTCTATTATCTCCCGGAGTCACCTAGTGCAG”, the binding signal is reported as 8570 fluorescence intensity (a.u.).
“TCCTTTTATTCCCATCACTCCATTCATTGTTCTTGTTCTTCGGAGTCACCTAGTGCAG” was tested, and the binding signal was 9370 fluorescence intensity (a.u.).
In the case of “ATCTCGCCTCGCACCTCGCACCGCTCGCGCCGCCCCTCGCCGGAGTCACCTAGTGCAG”, the binding signal is reported as 9020 fluorescence intensity (a.u.).
“GTGTAGTTAATTACTACACTAGGCTTTTGCTCGTCTTCCGCGGAGTCACCTAGTGCAG” was tested, and the binding signal was 8800 fluorescence intensity (a.u.).
“TTGATGGGCTTGCAAACAGGAGATCGACACGTTAGTCTACCGGAGTCACCTAGTGCAG” was tested, and the binding signal was 8360 fluorescence intensity (a.u.).
With “TGTGTGGTCGTAGGCTAGGGTTTCTCACGTCTCTCGCTGCCGGAGTCACCTAGTGCAG” the binding signal was 8550 fluorescence intensity (a.u.).
In the case of “CACCATCATCCTGCATATCTCGTTTAATTGTGTATATATACGGAGTCACCTAGTGCAG”, the binding signal is reported as 14100 fluorescence intensity (a.u.).
With “CCTTTGTGGTTGACCAAATACAACTTCTCTTGGTCTTTTGCGGAGTCACCTAGTGCAG” the binding signal was 9660 fluorescence intensity (a.u.).
In the case of “GCCAACAGTACAGAGGCCTCGCTTGTTCATCTTCGTCTCGCGGAGTCACCTAGTGCAG”, the binding signal is reported as 10900 fluorescence intensity (a.u.).
For “AATTAGTAGGTATGTGTTTTTCATGGTGATTAACGCTTTTCGGAGTCACCTAGTGCAG”, the binding signal was 9070 fluorescence intensity (a.u.).
For “TATCGAACCAAACTGTGGCATGTACTTAATTTTAGATAATCGGAGTCACCTAGTGCAG”, the binding signal was 9500 fluorescence intensity (a.u.).
For “TACATTGTTGTTCTTTTGAATTGGGACGCTCGATTTTTTCCGGAGTCACCTAGTGCAG”, the binding signal was 8350 fluorescence intensity (a.u.).
With “GAGCCCTTAATCCACTGTTCTAGTGACATAATCCACTGTTCGGAGTCACCTAGTGCAG” the binding signal was 8970 fluorescence intensity (a.u.).
“AATATTTCATCAGTTTCTAAATTTTTGACGCCGTTGACTTCGGAGTCACCTAGTGCAG” was tested, and the binding signal was 10200 fluorescence intensity (a.u.).
With “ACACCGTTGACTTTTTAGCACGTGTTTGACCGTTCACCTTCGGAGTCACCTAGTGCAG” the binding signal was 26900 fluorescence intensity (a.u.).
In the case of “GTATATTTTATGTTAACTTAGGGCTTGTTTGGTTTGTAACCGGAGTCACCTAGTGCAG”, the binding signal is reported as 8520 fluorescence intensity (a.u.).
For “ATTCGACGGGCGGACTCACTAACATGCATCACTCCATTTACGGAGTCACCTAGTGCAG”, the binding signal was 8360 fluorescence intensity (a.u.).
In the case of “TGTTTCGATTTTGAAGGGGTGGGTAGGAGAGAGGGGAAAACGGAGTCACCTAGTGCAG”, the binding signal is reported as 13400 fluorescence intensity (a.u.).
For “TTTGTTGACGTTTTTCACATATTTTTATTGTAAACTTGTACGGAGTCACCTAGTGCAG”, the binding signal was 9930 fluorescence intensity (a.u.).
In the case of “ATCGCTGATGACCTTGTCGAATTTGTTGCCAAAGTGGTTCCGGAGTCACCTAGTGCAG”, the binding signal is reported as 8670 fluorescence intensity (a.u.).

— paper PMC7819943, “Rice protein-binding microarrays: a tool to detect cis-acting elements near promoter regions in rice”
